Measured values from US9938240B2, “Fluorinated derivatives of 3-hydroxypyridin-4-ones” (Apotex Technologies Inc., priority 2009, dated 2018).
Some entries share one result that the patent states for a list of compounds. Some compounds share one range, which may span the group rather than tell each member.

Test system: SV-NRA cells
Assay: MPP+ treated SV-NRA cell viability (MTT)
Type: cell-based
Settings: 5 mM MPP+ treated SV-NRA cells, 10, 20 and 40 μM, 24 h, vs MPP+ only, p<0.05
Protocol: SV-NRAs cells were plated in a 96-well plate at a density of 10,000 cells/well in 100 μL of DME […], high glucose 1× liquid (Sigma) supplemented with 10% heat-inactivated FBS and 1× antibiotic/antimycotic solution (Sigma). On the next day, the cells were washed with EMEM media (Eagle's minimal essential media; phenol red, serum and glutamine free) and treated for 24 h with 5 mM MPP^+ (1-methyl-4-phenylpyridinium) in EMEM media in the presence or absence of a tested iron chelating compound. All compounds were tested at the following concentrations: 10 μM, 20 μM, and 40 μM. After 24 h of incubation, cell viability was determined with MTT ((3-(4,5-Dimethylthiazol-2-yl)-2,5-diphenyltetrazolium bromide, a yellow tetrazole) assay which measures mitochondrial activity (Carmichael et al. Cancer Research 1987, 47, 936-942). MTT solution (10 μL, 5 mg/mL) was added to the wells and incubated for 2 h. Formazan product was solubilized with 100 μL of 10% SDS (sodium dodecyl sulphate) in 0.01M HCl. Optical density was determined at 570 nm using Multiscan Ascent plate reader (Labsystems) and data collected were corrected for background signal measured at 650 nm. All data are expressed as % of control.
Co-treatment with iron chelators protected the cells from MPP^+ toxicity.

CN(C)Cc1cc(=O)c(O)c(CC(F)(F)F)n1C [Apo7021, 6-[(dimethylamino)methyl]-3-hydroxy-1-methyl-2-(2,2,2-trifluoroethyl)pyridin-4(1H)-one]
increase in cell viability: 20-30%
